Results: the supplement of paper PMC4604168 (melanoma cell lines)
The list shows a part of the results. Single values are uncertain, as repeats are few or missing.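 The apoptosis fraction was the count of cleaved-PARP antibody-stained nuclei relative to all DNA-stained nuclei, imaged in 1,536-well plates. Screening doses were set so most cells survived, and baseline and induced cleaved-PARP levels vary greatly across cell lines.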

Assays:
Experiment in all cases: cleaved PARP positive nuclei fraction relative to DMSO control; melanoma cells; higher = more apoptosis
Conditions in all cases: library dose: low library concentration; 72 h
COLO792 = test system: COLO792
COLO800 = test system: COLO800
COLO829 = test system: COLO829
G361 = test system: G361
IPC-298 = test system: IPC-298
IST-MEL1 = test system: IST-MEL1
LB2518-MEL = test system: LB2518-MEL
LOXIMVI = test system: LOXIMVI
MEL-HO = test system: MEL-HO
MZ2-MEL = test system: MZ2-MEL
MeWo = test system: MeWo
RPMI7951 = test system: RPMI7951
RVH-421 = test system: RVH-421
SkMel28 = test system: SkMel28
SkMel2 = test system: SkMel2
SkMel30 = test system: SkMel30
SkMel5 = test system: SkMel5
UACC257 = test system: UACC257
UACC62 = test system: UACC62

Structure (SMILES) | cleaved PARP positive nuclei fraction (COLO792) [%] | cleaved PARP positive nuclei fraction (COLO800) [%] | cleaved PARP positive nuclei fraction (COLO829) [%] | cleaved PARP positive nuclei fraction (G361) [%] | cleaved PARP positive nuclei fraction (IPC-298) [%] | cleaved PARP positive nuclei fraction (IST-MEL1) [%] | cleaved PARP positive nuclei fraction (LB2518-MEL) [%] | cleaved PARP positive nuclei fraction (LOXIMVI) [%] | cleaved PARP positive nuclei fraction (MEL-HO) [%] | cleaved PARP positive nuclei fraction (MZ2-MEL) [%] | cleaved PARP positive nuclei fraction (MeWo) [%] | cleaved PARP positive nuclei fraction (RPMI7951) [%] | cleaved PARP positive nuclei fraction (RVH-421) [%] | cleaved PARP positive nuclei fraction (SkMel28) [%] | cleaved PARP positive nuclei fraction (SkMel2) [%] | cleaved PARP positive nuclei fraction (SkMel30) [%] | cleaved PARP positive nuclei fraction (SkMel5) [%] | cleaved PARP positive nuclei fraction (UACC257) [%] | cleaved PARP positive nuclei fraction (UACC62) [%]
CC1(C)NC(=O)N(c2ccc([N+](=O)[O-])c(C(F)(F)F)c2)C1=O [nilutamide] + C=CCn1c(=O)c2cnc(Nc3ccc(N4CCN(C)CC4)cc3)nc2n1-c1cccc(C(C)(C)O)n1 [MK1775] (first compound 1 µM, partner dose 0.02 µM) | 160 | 52.3 | 137 | 152 | 107 | 197 | 47.5 | 51.8 | 46.8 | 57.3 | 33.5 | 108 | 110 | 121 | 79.4 | 63.7 | 99.9 | 109 | 164
CC1(C)NC(=O)N(c2ccc([N+](=O)[O-])c(C(F)(F)F)c2)C1=O [nilutamide] + Cc1ccc(NC(=O)c2cccc(N(C)C)c2)cc1NC(=O)c1ccc(O)cc1 [ZM336372] (first compound 1 µM, partner dose 2 µM) | 84.5 | 49.6 | 107 | 72 | 302 | 33.2 | 103 | 198 | 37.6 | 91.7 | 88.6 | 273 | 48.1 | 121 | 28.7 | 115 | 150 | 76.6 | 22.2
OCCn1cc(-c2cnc3nnn(Cc4ccc5ncccc5c4)c3n2)cn1 + O=C(O)c1ccc(-c2c[nH]c3ncc(-c4ccccc4)cc23)cc1C1CCCC1 [GSK650394] (first compound 1 µM, partner dose 0.16 µM) | 114 | 138 | 66.6 | 88.2 | 398 | 138 | 220 | 92.1 | 35.6 | 108 | 106 | 110 | 202 | 127 | 174 | 64.6 | 149 | 107 | 93
CC(=O)c1c(C)c2cnc(Nc3ccc(N4CCNCC4)cn3)nc2n(C2CCCC2)c1=O [palbociclib] + NCC(=O)Nc1ccc(-n2nc(C(F)(F)F)cc2-c2ccc3c(ccc4ccccc43)c2)cc1 [OSU03012] (first compound 0.04 µM, partner dose 1 µM) | 130 | 139 | 66.3 | 106 | 60.9 | 75.5 | 27.8 | 180 | 143 | 63.2 | 53.7 | 179 | 100 | 162 | 144 | 120 | 195 | 77.3 | 230
Cn1nnc2c(C(N)=O)ncn2c1=O [temozolomide] + OCCn1cc(-c2cnc3nnn(Cc4ccc5ncccc5c4)c3n2)cn1 [PF04217903] (first compound 2 µM, partner dose 1 µM) | 105 | 91 | 68.7 | 38.8 | 103 | 54.4 | 44.1 | 56.6 | 226 | 121 | 111 | 69.5 | 99.4 | 96.8 | 92.7 | 74.3 | 92 | 78.9 | 64.3
O=C(CCCCCCC(=O)Nc1ccccc1)NO [vorinostat] + CC1(C)NC(=O)N(c2ccc([N+](=O)[O-])c(C(F)(F)F)c2)C1=O [nilutamide] (first compound 0.08 µM, partner dose 1 µM) | 147 | 46.7 | 48.2 | 78.7 | 42.5 | 65.6 | 149 | 224 | 137 | 116 | 138 | 87.2 | 90.7 | 124 | 93.2 | 58.9 | 145 | 358 | 41.1
Cc1nc(Nc2ncc(C(=O)Nc3c(C)cccc3Cl)s2)cc(N2CCN(CCO)CC2)n1 [dasatanib] + C[C@@H]1CCN(C(=O)CC#N)C[C@@H]1N(C)c1ncnc2[nH]ccc12 [CP690550] (first compound 0.004 µM, partner dose 1 µM) | 179 | 148 | 139 | 65.4 | 85.8 | 215 | 101 | 236 | 136 | 30.6 | 104 | 124 | 75.3 | 94 | 145 | 69.6 | 68.4 | 273 | 210
